This note sets out measurements from PubChem BioAssay AID330 (DTP/NCI, 2004).

This assay deals with P388 leukemia ip, CD2F1 mice, survival T/C. As to the kind of experiment: NCI In Vivo Anticancer Drug Screen. Data for tumor model P388 Leukemia (intraperitoneal) in CD2F1 (CDF1) mice. Particulars: T/C endpoint: median survival time, higher T/C = longer survival.
Setting [1] is: dose: 200.0 mg/kg/injection, schedule: Q01DX001 (ip), vehicle: Klucel (hydroxypropylcellulose) (HPC).
[2] abbreviates: dose: 400.0 mg/kg/injection, schedule: Q01DX001 (ip), vehicle: Klucel (hydroxypropylcellulose) (HPC).
Where [3] appears, read: dose: 100.0 mg/kg/injection, schedule: Q01DX009 (ip), vehicle: saline with Tween-80.
The mark [4] stands for this setting: dose: 100.0 mg/kg/injection, schedule: Q01DX009 (ip), vehicle: saline.
Where [5] appears, read: dose: 200.0 mg/kg/injection, schedule: Q01DX009 (ip), vehicle: saline with Tween-80.
[6] abbreviates: dose: 200.0 mg/kg/injection, schedule: Q01DX009 (ip), vehicle: saline.
[7] abbreviates: dose: 300.0 mg/kg/injection, schedule: Q04DX003 (ip), vehicle: saline with Tween-80.
[8] abbreviates: dose: 50.0 mg/kg/injection, schedule: Q01DX009 (ip), vehicle: saline.
Where [9] appears, read: dose: 400.0 mg/kg/injection, schedule: Q04DX002 (ip), vehicle: saline with Tween-80.
The mark [10] stands for this setting: dose: 200.0 mg/kg/injection, schedule: Q01DX005 (ip), vehicle: saline with Tween-80.
Setting [11] is: dose: 50.0 mg/kg/injection, schedule: Q01DX005 (ip), vehicle: saline with Tween-80.

The list shows only some results of the screen, not a fair sample: it gathers tests that were run many times, whatever their T/C, doses with no T/C, and many T/C values between a quarter and a half above the control. Other doses and runs of a compound stand elsewhere. T/C gives the treated animals as a percentage of the vehicle group. Some entries give survivors of the animals treated and no T/C: the source holds a T/C of zero for them, seemingly a mark for toxic or unscored doses. Some doses without a T/C left all or most animals alive at the check, yet need not have been tolerated: survival well below the control is almost never listed, so the zero probably covers shortened survival too. Survivors were counted at the toxicity check, usually on the fifth day, unless a day is given; later deaths do not show. Schedule codes are those of the source, taken here to give the interval after Q, in days (D) or hours (H), and the number of doses after X. Some structures stand for samples that the source files as different forms (salt, stereo form or complex); doses refer to the form tested. Some entries hold several experiments; the results are listed from low to high. For survival time, this PubChem deposit counts one and a half times the control or more as active, and values a quarter to a half above the control carry no call in these data; other NCI protocols may use other cut-offs. Some T/C values are followed by the survivors on the day toxicity was checked, most often the fifth; without a count, all were alive then.

For the compound `CC(=O)O[C@@H]1C(=O)C=C(C)[C@@H]2[C@@H](OC(=O)C=C(C)C)[C@H]3OC(=O)C[C@H]4[C@@H](C)[C@@H](O)[C@]5(O)OC[C@]34[C@H]5[C@@]12C`, the T/C is, setting by setting: (dose: 1.25 mg/kg/injection, schedule: Q01DX009 (ip), vehicle: distilled water + Tween-80) 145 % of control; (dose: 2.0 mg/kg/injection, schedule: Q01DX009 (ip), vehicle: distilled water + Tween-80) 132 % of control; (dose: 2.5 mg/kg/injection, schedule: Q01DX009 (ip), vehicle: distilled water + Tween-80) 135 % of control; (dose: 4.0 mg/kg/injection, schedule: Q01DX009 (ip), vehicle: distilled water + Tween-80) 142 % of control; (dose: 5.0 mg/kg/injection, schedule: Q01DX009 (ip), vehicle: distilled water + Tween-80) 138 % of control [5 of 6 alive]; (dose: 8.0 mg/kg/injection, schedule: Q01DX009 (ip), vehicle: distilled water + Tween-80) 142 % of control.
`CC(C)OSc1ccccc1`: the T/C is, setting by setting: (dose: 25.0 mg/kg/injection, schedule: Q01DX001 (ip), vehicle: Klucel (hydroxypropylcellulose) (HPC)) 129 % of control; (dose: 50.0 mg/kg/injection, schedule: Q01DX001 (ip), vehicle: Klucel (hydroxypropylcellulose) (HPC)) 125 % of control [5 of 6 alive]. The survivor count under setting [1] is on record as 1 of 6 and the survivor count under setting [2] is reported as 0 of 6.
As to `COc1cc(C)c2sc3ccccc3c(=O)c2c1NCCN(C)C`, the T/C (dose: 50.0 mg/kg/injection, schedule: Q01DX009 (ip), vehicle: saline, evaluated on day 20) is 106 % of control; the T/C (dose: 50.0 mg/kg/injection, schedule: Q01DX009 (ip), vehicle: saline, evaluated on day 30) is 117 [5 of 6 alive], 119, 122 % of control; the T/C under setting [3] is 127 % of control [5 of 6 alive]; the T/C under setting [5] was 129 % of control. The survivor count under setting [4] is listed as 5 of 5 and the survivor count under setting [6] is given as 1 of 6.
For `CCO/C=C1\SC(=S)N(c2ccccc2C)C1=O`, the T/C is 127 % of control (dose: 10.0 mg/kg/injection, schedule: Q03HX024 (ip), vehicle: saline with Tween-80); 126 and 130 % of control (dose: 20.0 mg/kg/injection, schedule: Q03HX024 (ip), vehicle: saline with Tween-80); 131 % of control (dose: 33.0 mg/kg/injection, schedule: Q01DX009 (ip), vehicle: saline with Tween-80); 126 % of control (dose: 44.0 mg/kg/injection, schedule: Q01DX009 (ip), vehicle: saline with Tween-80); 128 % of control (dose: 50.0 mg/kg/injection, schedule: Q01DX009 (ip), vehicle: saline with Tween-80); 128 % of control (dose: 66.0 mg/kg/injection, schedule: Q01DX009 (ip), vehicle: saline with Tween-80). The T/C by setting is: under setting [3], 127 % of control; under setting [5], 127 % of control. Also, the survivor count reads like this: (dose: 40.0 mg/kg/injection, schedule: Q03HX024 (ip), vehicle: saline with Tween-80) 4 of 6; (dose: 80.0 mg/kg/injection, schedule: Q03HX024 (ip), vehicle: saline with Tween-80) 4 of 5; under setting [7], 5 of 6; (dose: 400.0 mg/kg/injection, schedule: Q01DX009 (ip), vehicle: saline with Tween-80) 1 of 6.
With `O=C(O)c1ccc(N=NC2Sc3nc4ccccc4n3C2=O)cc1` (configuration not stated), the survivor count (dose: 240.0 mg/kg/injection, schedule: Q01DX005 (ip), vehicle: Klucel (hydroxypropylcellulose) (HPC)) is 6 of 6.
Regarding `O=C(CC(=O)N1CCN(c2ccccc2)CC1)N1CCN(c2ccccc2)CC1`, the survivor count under setting [8] is 6 of 6 and the survivor count under setting [6] is recorded as 2 of 6.
`O=C(Nc1ccc(N=C=S)cc1Cl)c1cc(Br)cc(Br)c1O`: the survivor count reads like this: under setting [1], 1 of 6; under setting [2], 1 of 6.
As for `CCn1c2nc(=O)n(C)c(=O)c-2[n+]([O-])c2cc(Br)ccc21`, the survivor count (dose: 50.0 mg/kg/injection, schedule: Q04DX002 (ip), vehicle: saline with Tween-80) is recorded as 2 of 6; the survivor count (dose: 100.0 mg/kg/injection, schedule: Q04DX002 (ip), vehicle: saline with Tween-80) was 0 of 6 and 1 of 6; the survivor count (dose: 200.0 mg/kg/injection, schedule: Q04DX002 (ip), vehicle: saline with Tween-80) is recorded as 0 of 6; the survivor count under setting [9] is 0 of 6.
As for `CN(C)CCCN1c2ccccc2Cc2ccccc21`, the survivor count under setting [10] is 2 of 6.
Regarding `NNC(=O)CCC(=O)NN`, the survivor count (dose: 400.0 mg/kg/injection, schedule: Q04DX002 (ip), vehicle: saline) was 0 of 6.
In the case of `CCOC(=O)/[C](=N\N=P(N(C)C)(N(C)C)N(C)C)[Hg]/[C](=N/N=P(N(C)C)(N(C)C)N(C)C)C(=O)OCC`, the T/C under setting [8] is 125 % of control. For the same compound, the survivor count is reported as 0 of 6 under setting [4] and 0 of 6 under setting [6].
For the compound `CC(C)Cn1c(Cl)c(/C=N\Nc2ccc([N+](=O)[O-])cc2)c2ccccc21`, the survivor count by setting is: (dose: 6.25 mg/kg/injection, schedule: Q01DX001 (ip), vehicle: saline with Tween-80) 6 of 6; (dose: 12.5 mg/kg/injection, schedule: Q01DX001 (ip), vehicle: saline with Tween-80) 6 of 6; (dose: 25.0 mg/kg/injection, schedule: Q01DX001 (ip), vehicle: saline with Tween-80) 6 of 6.
For the compound `Cc1ccc(S(=O)(=O)OC2CCC3(C)C(CCC4C3CCC3(C)C(C(C)CCCC(C)C)CCC43)C2)cc1` (configuration not stated), the survivor count (dose: 12.0 mg/kg/injection, schedule: Q01DX005 (ip), vehicle: Klucel (hydroxypropylcellulose) (HPC)) is given as 4 of 6; the survivor count (dose: 25.0 mg/kg/injection, schedule: Q01DX005 (ip), vehicle: Klucel (hydroxypropylcellulose) (HPC)) is 2 of 6; the survivor count (dose: 50.0 mg/kg/injection, schedule: Q01DX005 (ip), vehicle: Klucel (hydroxypropylcellulose) (HPC)) is listed as 0 of 6.
Regarding `NCCCNCCCCNCCCN`, the T/C (dose: 100.0 mg/kg/injection, schedule: Q01DX001 (ip), vehicle: saline) was 128 % of control [5 of 6 alive]. Further, the survivor count runs as follows: (dose: 200.0 mg/kg/injection, schedule: Q01DX001 (ip), vehicle: saline) 3 of 6; (dose: 400.0 mg/kg/injection, schedule: Q01DX001 (ip), vehicle: saline) 0 of 6.
As for `C=Cc1ccccc1N/N=C(\Cl)C(=O)OCC`, the survivor count under setting [9] is 2 of 6.
For the compound `c1ccc(-c2ccc[n+](CCC[n+]3cccc(-c4ccccn4)c3)c2)nc1`, under setting [10], the survivor count is given as 0 of 6.
For `O=C1NC(=O)C2(CCCc3ccc(N(CCCl)CCCl)cc32)N1` (configuration not stated), the T/C is 145 % of control (dose: 25.0 mg/kg/injection, schedule: Q04DX003 (ip), vehicle: saline with Tween-80) and 127 % of control [4 of 6 alive] (dose: 200.0 mg/kg/injection, schedule: Q04DX003 (ip), vehicle: saline with Tween-80). Besides, the survivor count was 6 of 6 under setting [3], 4 of 6 under setting [5] and 4 of 6 under setting [7].
Regarding `COc1c(-c2ccc3c(c2)OCO3)oc2cc(O)cc(O)c2c1=O`, the survivor count under setting [11] was 5 of 5.
For `N#CC1OC1c1cccnc1` (configuration not stated), the survivor count reads like this: under setting [11], 0 of 6; (dose: 100.0 mg/kg/injection, schedule: Q01DX005 (ip), vehicle: saline with Tween-80) 0 of 6; under setting [10], 0 of 6.
As to `COc1cccc2c1C(=O)c1c(O)c3c(c(O)c1C2=O)CC(O)(C(=O)CO)CC3OC1CC(N)C(I)C(C)O1` (configuration not stated), the T/C by setting is: (dose: 2.2 mg/kg/injection, schedule: Q01DX001 (ip), vehicle: saline) 134 % of control; (dose: 3.3 mg/kg/injection, schedule: Q01DX001 (ip), vehicle: saline) 148 % of control.
On to `[CH3][Sn]1([CH3])[O]C(=O)C(=O)[O]1`, for which the survivor count runs as follows: (dose: 100.0 mg/kg/injection, schedule: Q01DX001 (ip), vehicle: Klucel (hydroxypropylcellulose) (HPC)) 0 of 6; under setting [1], 0 of 6; under setting [2], 0 of 6.
